In the assay the test system is RAW 264.7. Nature of the assay: cell viability (MTT) relative to vehicle control; higher = more viable cells. The following applies: stimulus: HMGB1 5 ug/ml, 18 h.
The mark [1] stands for this setting: compound concentration: 1 ug/ml.

The structures appear in SMILES notation. Several values for one entry are separate records, joined by “and”; a condition that tells them apart may be missing. Equal entries are not always repeated. Structures can show the parent of a compound that is named as a salt. ± gives the standard deviation of the averaged measurements. The list shows a part of the results. Repeats are few or missing, and single values can be far off.

As for `O=c1c2ccccc2[nH]c(=S)n1CCN1CCC(=C(c2ccc(F)cc2)c2ccc(F)cc2)CC1` [Diacylglycerol Kinase Inhibitor II], the cell viability (compound concentration: 3 uM) came to 109%. Same read-out and setting: with `CC(=O)NC[C@H]1CN(c2ccc(N3CCOCC3)c(F)c2)C(=O)O1` [Linezolid] the figure was 112 ± 1.8%. On the same count and under the same terms, the figure for `CC(=O)NC[C@H]1CN(c2ccc(N3CCOCC3)c(F)c2)C(=O)O1` is 101%. Consider `O=C1C(O)=C(O)C(=O)C(O)=C1O`, for which, where the note is “compound concentration: 3 uM”, the cell viability was found to be 99.1%. Regarding `O=C1C(O)=C(O)C(=O)C(O)=C1O` [Tetrahydroxy-1,4-quinone monohydrate], the cell viability (compound concentration: 3 uM) was 97.1%. With `NC(=O)c1cc[n+](CC2=C(C(=O)[O-])N3C(=O)[C@@H](NC(=O)Cc4cccs4)[C@H]3SC2)cc1`, the cell viability (compound concentration: 3 uM) worked out at 114%. The same measure, in the same setting: with `Cc1nccn1CC1CCc2c(c3ccccc3n2C)C1=O` (stereo not drawn) the figure was 99.5%; with `Cc1nccn1CC1CCc2c(c3ccccc3n2C)C1=O` (stereo not drawn) [Ondansetron], 95%.

Regarding `Cc1nccn1CC1CCc2c(c3ccccc3n2C)C1=O` (stereo not drawn) [Ondansetron Hydrochloride], for the setting “compound concentration: 3 uM”, the cell viability came out at 87.9%. As for `CC(=O)NCCCCCCNC(C)=O`, the cell viability (compound concentration: 3 uM) turned out to be 100%.

For the molecule `CC(C)Cn1c(=O)n(C)c(=O)c2nc[nH]c21` [Isobutylmethylxanthine], the cell viability (compound concentration: 3 uM) came to 112%. `OCC(S)CS` (stereo not drawn): the cell viability (compound concentration: 3 uM) came out at 102%. Still for that read-out and setting: with `CC[C@@H]1Cc2cc(O)ccc2C2=C1c1ccc(O)cc1C[C@H]2CC` [(R,R)-cis-Diethyl tetrahydro-2,8-chrysenediol] the figure was 84.3%. For `Nc1ncnc2c1ncn2[C@H]1CC[C@@H](CO)O1` [2',3'-Dideoxyadenosine], the cell viability under setting [1] is 118%. Regarding `COc1ccc2cc3[n+](cc2c1OC)CCc1cc2c(cc1-3)OCO2`, the cell viability (compound concentration: 3 uM) stood at 94.7 ± 17%.

Turning to `CCCCCCCCCCCCCCCC[N+](C)(C)C`, where the note is “compound concentration: 3 uM”, the cell viability was found to be 79.2%. Same read-out and setting: with `NC(=O)C1(N2CCCCC2)CCN(CCCC(=O)c2ccc(F)cc2)CC1` the figure was 107%; with `CNC1(C)C2CCC(C2)C1(C)C` (stereo not drawn), 113%; with `CNC1(C)C2CCC(C2)C1(C)C` (stereo not drawn) [Mecamylamine hydrochloride], 104 ± 12%. For the molecule `CNC1(C)C2CCC(C2)C1(C)C` (stereo not drawn) [Mecamylamine], the cell viability (compound concentration: 3 uM) amounted to 101%. For `COc1cc2ccc(=O)oc2cc1OC1OC(COC2OC(C)C(OC(C)=O)C(OC(C)=O)C2OC(C)=O)C(OC(C)=O)C(OC(C)=O)C1OC(C)=O` (stereo not drawn) [Haploperoside C Acetate], the cell viability under setting [1] stood at 105%. Regarding `Nc1nccs1`, under “compound concentration: 3 uM”, the cell viability turned out to be 112%. Consider `NC(=O)c1cccnc1`, for which, for the setting “compound concentration: 3 uM”, the cell viability was 108% and 96%. Same read-out and setting: the figure for `NC(=O)c1cccnc1` [Nicotinamide] is 102%. `NCCC(=O)N[C@@H](Cc1cnc[nH]1)C(=O)O` [L-Carnosine]: the cell viability under setting [1] came to 99.3%. For `CCCc1nc(C(C)(C)O)c(C(=O)OCc2oc(=O)oc2C)n1Cc1ccc(-c2ccccc2-c2nnn[nH]2)cc1`, the cell viability (compound concentration: 3 uM) was found to be 101 ± 3%. Same read-out and setting: with `Cn1c(=O)c2c(ncn2CC(O)CO)n(C)c1=O` (stereo not drawn) the figure was 114%; with `Cn1c(=O)c2c(ncn2CC(O)CO)n(C)c1=O` (stereo not drawn) [Diprophylline], 102%.

Turning to `C=C(NC(=O)C(=C)NC(=O)c1csc(C2=N[C@@H]3c4csc(n4)[C@H]4NC(=O)c5csc(n5)[C@H]([C@](C)(O)[C@@H](C)O)NC(=O)[C@H]5CSC(=N5)/C(=C/C)NC(=O)[C@H]([C@@H](C)O)NC(=O)c5csc(n5)[C@]3(CC2)NC(=O)[C@H](C)NC(=O)C(=C)NC(=O)[C@H](C)NC(=O)[C@H]([C@@H](C)CC)N[C@@H]2C=Cc3c([C@H](C)O)cc(nc3[C@H]2O)C(=O)O[C@@H]4C)n1)C(N)=O` [Thiostrepton], under “compound concentration: 3 uM”, the cell viability was 54.3%. Still for that read-out and setting: with `CCC(C)(CN(C)C)OC(=O)c1ccccc1` (stereo not drawn) [Amyleine hydrochloride] the figure was 97.3%. The same measure, in the same setting: with `C[C@@H]1CC2C3C[C@H](F)C4=CC(=O)C=C[C@]4(C)[C@@]3(F)[C@@H](O)C[C@]2(C)[C@@]1(O)C(=O)COC(=O)C(C)(C)C` (stereo partly drawn) the figure was 117%; with `CC(=C(CCO)SSCC1CCCO1)N(C=O)Cc1cnc(C)nc1N` (stereo in doubt) [Fursultiamine Hydrochloride], 96.8%. Consider `COC1C=COC2(C)Oc3c(C)c(O)c4c(O)c(c(C=O)c(O)c4c3C2=O)NC(=O)C(C)=CC=CC(C)C(O)C(C)C(O)C(C)C(OC(C)=O)C1C` (stereo not drawn) [3-formyl Rifamycin SV], for which the cell viability under setting [1] stood at 101%.

As for `CC(C)(Oc1ccc(C2CC2(Cl)Cl)cc1)C(=O)O` (stereo not drawn) [Ciprofibrate], the cell viability (compound concentration: 3 uM) came out at 97.7 ± 10%. Still for that read-out and setting: the figure for `C=CCN1CCCC1CNC(=O)c1cc2nn[nH]c2cc1OC` (stereo not drawn) [Alizapride HCl] is 117%. Regarding `CCCc1cc(=O)oc2cc(O)cc(O)c12` [5,7-Dihydroxy-4-propylcoumarin], the cell viability under setting [1] was determined as 105%.

Regarding `CC1=C(C(=O)O)N2C(=O)[C@@H](NC(=O)[C@H](N)c3ccc(O)cc3)[C@H]2SC1`, the cell viability (compound concentration: 3 uM) was found to be 110%.

As to `CC1=C(C(=O)O)N2C(=O)[C@@H](NC(=O)[C@H](N)c3ccc(O)cc3)[C@H]2SC1` [Cefadroxil], the cell viability (compound concentration: 3 uM) amounted to 105%.

In the case of `O=C(O)CCC/C=C\C[C@@H]1[C@@H](/C=C/[C@H](O)C2Cc3ccccc3C2)[C@@H](F)C[C@@H]1O`, the cell viability (compound concentration: 3 uM) was found to be 93.8%. As to `N[C@@H](CCC(=O)N[C@@H](CSN=O)C(=O)NCC(=O)O)C(=O)O` [S-Nitrosoglutathione], for the setting “compound concentration: 3 uM”, the cell viability turned out to be 110%. Take `Cc1cn([C@H]2C[C@H](O)[C@@H](CO)O2)c(=O)[nH]c1=O` [Thymidine]: the cell viability under setting [1] is 95.5%.

Consider `CC(CCc1ccc(O)cc1)NCCc1ccc(O)c(O)c1` (stereo not drawn) [Dobutamine], for which, where the note is “compound concentration: 3 uM”, the cell viability is 96.1%. On to `CC(CCc1ccc(O)cc1)NCCc1ccc(O)c(O)c1` (stereo not drawn), for which the cell viability (compound concentration: 3 uM) stood at 107%.

On to `CC(CCc1ccc(O)cc1)NCCc1ccc(O)c(O)c1` (stereo not drawn) [Dobutamine hydrochloride], for which the cell viability (compound concentration: 3 uM) was 99.6 ± 11%.

As for `CC1CCN(CCCC(=O)c2ccc(F)cc2)CC1` [Metylperon], where the note is “compound concentration: 3 uM”, the cell viability was found to be 105%. Take `Nc1ccc(S(N)(=O)=O)cc1` [Sulfanilamide]: for the setting “compound concentration: 3 uM”, the cell viability is 117%. Take `Nc1ccc(S(N)(=O)=O)cc1`: the cell viability (compound concentration: 3 uM) came to 97.1%. For the molecule `CCN1CCC[C@H]1CNC(=O)c1cc(S(N)(=O)=O)ccc1OC` [Sulpiride S (-)], for the setting “compound concentration: 3 uM”, the cell viability was found to be 116%. Still for that read-out and setting: with `CCN1CCC[C@H]1CNC(=O)c1cc(S(N)(=O)=O)ccc1OC` the figure was 92.4%; with `O=c1cc(O)cc(/C=C/c2ccc(O)c(O)c2)o1` [Hispidin], 108%; with `CCOc1nc2cccc(C(=O)OC(C)OC(=O)OC3CCCCC3)c2n1Cc1ccc(-c2ccccc2-c2nn[nH]n2)cc1` (stereo not drawn), 103%. Regarding `O=c1[nH]c(=O)n([C@H]2C[C@H](O)[C@@H](CO)O2)cc1/C=C/Br` [(E)-5-(2-Bromovinyl)-2'-deoxyuridine], the cell viability by setting is: under setting [1], 86.1%; (compound concentration: 3 uM) 103%.

On to `CC[C@]12CCCN3CCc4c(n(c5ccccc45)[C@@](O)(C(=O)OC)C1)[C@@H]32`, for which the cell viability (compound concentration: 3 uM) turned out to be 98.2%. As to `CC[C@]12CCCN3CCc4c(n(c5ccccc45)[C@@](O)(C(=O)OC)C1)[C@@H]32` [Vincamine], the cell viability reads like this: under setting [1], 86.2%; (compound concentration: 3 uM) 98.2%. Turning to `COc1ccc(CCN(C)CCCC(C#N)(c2ccc(OC)c(OC)c2)C(C)C)cc1OC` (racemic) [(±)-Verapamil hydrochloride], the cell viability (compound concentration: 3 uM) amounted to 109%.

For `CCC(C)(C)c1ccc(CC(C)CN2C[C@@H](C)O[C@@H](C)C2)cc1` (stereo partly drawn) [Amorolfine], where the note is “compound concentration: 3 uM”, the cell viability worked out at 107%. On the same count and under the same terms, the figure for `CC(C)N(CCC(=O)c1ccc2ccccc2c1)Cc1ccccc1` is 106%; for `O=C(O)c1cc(=O)c2c(OCC(O)COc3cccc4oc(C(=O)O)cc(=O)c34)cccc2o1` [Cromolyn disodium salt] it is 80.5%. The same measure, in the same setting: the figure for `O=C(O)c1cc(=O)c2c(OCC(O)COc3cccc4oc(C(=O)O)cc(=O)c34)cccc2o1` is 94.5%; for `O=C(O)c1cc(=O)c2c(OCC(O)COc3cccc4oc(C(=O)O)cc(=O)c34)cccc2o1` [Disodium Cromoglycate] it is 100%. Regarding `O=c1c(O)c(-c2ccccc2)oc2cc(O)cc(O)c12` [Galangin], the cell viability under setting [1] amounted to 82.5%. `CCN1CCCC1CNC(=O)c1cc(S(N)(=O)=O)ccc1OC` (racemic) [(±)-Sulpiride]: where the note is “compound concentration: 3 uM”, the cell viability was 115%. On to `CC(=O)Oc1ccc(/C=C/C(=O)CC2OC(Oc3cc(OC(C)=O)c4c(c3)O[C@@H](c3ccc(OC(C)=O)cc3)CC4=O)C(OC(C)=O)C(OC(C)=O)C2OC(C)=O)cc1` (stereo partly drawn), for which, under setting [1], the cell viability was found to be 96.5%. Still for that read-out and setting: the figure for `COc1cc2oc(-c3ccccc3)cc(=O)c2cc1O` is 86.1%; for `C=CCNc1ncnc2c1ncn2[C@@H]1O[C@H](CO)[C@@H](O)[C@H]1O` [N-Allyladenosine] it is 93.5%. The same measure, in the same setting: the figure for `O=c1cc(-c2cccc(O)c2)oc2c(O)c(O)ccc12` is 85.6%. Consider `C/N=C(/NC#N)NCCSCc1csc(NC(=N)N)n1` [Tiotidine], for which the cell viability (compound concentration: 3 uM) came to 95.8%.

For the molecule `Nc1nc(=O)c2c([nH]1)NCC(CNc1ccc(C(=O)N[C@@H](CCC(=O)O)C(=O)O)cc1)N2C=O` (stereo partly drawn), the cell viability (compound concentration: 3 uM) amounted to 105%. The same measure, in the same setting: the figure for `CN(C)C(=O)N=NC(=O)N(C)C` [N,N,N',N'-Tetramethylazodicarboxamide] is 101%; for `CCN1/C(=C/C(C)=O)Sc2ccc(OC)cc21` it is 106%. Take `Cc1ccc(O)c([C@H](CCN(C(C)C)C(C)C)c2ccccc2)c1`: the cell viability (compound concentration: 3 uM) amounted to 98.4%. For the molecule `Cc1nc(N=Nc2ccc(S(=O)(=O)O)cc2S(=O)(=O)O)c(COP(=O)(O)O)c(C=O)c1O`, for the setting “compound concentration: 3 uM”, the cell viability came out at 101%. As for `CCCCC[C@H](CC(=O)NO)C(=O)N[C@H](C(=O)N1CCC[C@H]1CO)C(C)C` [Actinonin], the cell viability (compound concentration: 3 uM) is 105%. The same measure, in the same setting: with `CC(=O)OC(C)C[N+](C)(C)C` (stereo not drawn) the figure was 108%; with `CC(=O)OC(C)C[N+](C)(C)C` (stereo not drawn) [Acetyl-beta-methylcholine chloride], 104%. Regarding `CC(=O)OC(C)C[N+](C)(C)C` (stereo not drawn) [Methacholine chloride], the cell viability (compound concentration: 3 uM) was found to be 120%. The same measure, in the same setting: with `CCCCOc1ccc(CC(=O)NO)cc1` the figure was 109%; with `CCCCOc1ccc(CC(=O)NO)cc1` [Bufexamac], 92%; with `Oc1c(Cl)cc(Cl)cc1Sc1cc(Cl)cc(Cl)c1O`, 97.2%.

Regarding `NC[C@H]1CC[C@H](C(=O)O)CC1` [Tranexamic acid], for the setting “compound concentration: 3 uM”, the cell viability was determined as 112%. Still for that read-out and setting: the figure for `NC[C@H]1CC[C@H](C(=O)O)CC1` is 101%; for `C=CCc1ccccc1OCC(O)CNC(C)C` (stereo not drawn) it is 96.2%; for `C=CCc1ccccc1OCC(O)CNC(C)C` (stereo not drawn) [Alprenolol hydrochloride] it is 104.2 ± 0.9%.

Consider `C=CCc1ccccc1OCC(O)CNC(C)C` (stereo not drawn) [Alprenolol], for which the cell viability (compound concentration: 3 uM) turned out to be 114%.

For the molecule `CN(C)CCC(c1ccccc1)c1ccccn1` (stereo not drawn), the cell viability (compound concentration: 3 uM) is 111%. For the molecule `CN(C)CCC(c1ccccc1)c1ccccn1` (stereo not drawn) [Pheniramine maleate], the cell viability (compound concentration: 3 uM) is 104 ± 20%.
